Assay results as given in patent EP1743643A1, “New formulations of substituted pyrazoline compounds” (LABORATORIOS DEL DR. ESTEVE, S.A., priority 2005, dated 2007).
At least one compound was matched to its structure with a doubt left.

Experiment: In vivo testing for antidepressant activity, water despair test

O=C(NN1CCCCC1)C1=NN(c2ccc(Cl)cc2Cl)C(c2ccc(Cl)cc2)C1 (centres unmarked) [Example 1, N-piperidinyl-5-(4-chlorophenyl)-1-(2,4-dichlorophenyl)-4,5-dihydro-1H-pyrazole-3-carboxamide]
immobility time: positive effects | struggling time: positive effects
